The record followed here is PMC4618059.

Assay [1] concerns the target T1, MAS C-terminal tail (Ct) peptide, residues 301 to 325 of human MAS receptor, N-terminal biotin, C316S (human).
T1 sequence (peptide, biotin on the N-terminus): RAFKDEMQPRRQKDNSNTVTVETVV
Nature of the assay: affinity purification with mass spectrometry; biotinylated MAS Ct peptide immobilised on NeutrAvidin agarose resin; human cardiac tissue lysate (~600 μg), overnight at 4°C; washes with D-PBS; elution with 2% SDS; LC-MS of whole gel lanes; resin alone as control; only the target purified.

Assay [2] has the same target. Description: affinity purification with mass spectrometry; biotinylated MAS Ct peptide immobilised on NeutrAvidin agarose resin; HL-1 cell lysate (~6 mg), overnight at 4°C; washes with D-PBS; elution with 2% SDS; LC-MS of whole gel lanes; resin alone as control; only the target purified.
Assay [3] has the same target. Description: affinity purification with mass spectrometry; biotinylated MAS Ct peptide immobilised on NeutrAvidin agarose resin; HEK293 cell lysate (~4 mg), overnight at 4°C; washes with D-PBS; elution with 2% SDS; LC-MS of whole gel lanes; resin alone as control; only the target purified.

No constants are given. Whether binding was seen depends on the method and setting. Binding seen in cells or lysates may run through a third protein. These calls come from enrichment with a bait or labelling near it, and not all partners need be listed.

B1: ACOT9 (protein, UniProt Q9Y305 22-439)
chain: LTQGPQNPKKQGIFHIHEVRDKLREIVGASTNWRDHVKAMEERKLLHSFLAKSQDGLPPRRMKDSYIEVLLPLGSEPELREKYLTVQNTVRFGRILEDLDSLGVLICYMHNKIHSAKMSPLSIVTALVDKIDMCKKSLSPEQDIKFSGHVSWVGKTSMEVKMQMFQLHGDEFCPVLDATFVMVARDSENKGPAFVNPLIPESPEEEELFRQGELNKGRRIAFSSTSLLKMAPSAEERTTIHEMFLSTLDPKTISFRSRVLPSNAVWMENSKLKSLEICHPQERNIFNRIFGGFLMRKAYELAWATACSFGGSRPFVVAVDDIMFQKPVEVGSLLFLSSQVCFTQNNYIQVRVHSEVASLQEKQHTTTNVFHFTFMSEKEVPLVFPKTYGESMLYLDGQRHFNSMSGPATLRKDYLVEP
In the case of B1, the binding entry in assay [1] is “binds”.

B2: PRDX1 (protein, UniProt Q06830 1-199)
chain: MSSGNAKIGHPAPNFKATAVMPDGQFKDISLSDYKGKYVVFFFYPLDFTFVCPTEIIAFSDRAEEFKKLNCQVIGASVDSHFCHLAWVNTPKKQGGLGPMNIPLVSDPKRTIAQDYGVLKADEGISFRGLFIIDDKGILRQITVNDLPVGRSVDETLRLVQAFQFTDKHGEVCPAGWKPGSDTIKPDVQKSKEYFSKQK
On to B2, for which, in assay [1], the binding entry is “binds”.

B3: SNTA1 (mouse) (protein, UniProt Q61234 1-503)
chain: MASGRRAPRTGLLELRCGAGSGAGGERWQRVLLSLAEDALTVSPADGEPGPEPEPAQLNGAAEPGAAPPQLPEALLLQRRRVTVRKADAGGLGISIKGGRENKMPILISKIFKGLAADQTEALFVGDAILSVNGEDLSSATHDEAVQALKKTGKEVVLEVKYMKEVSPYFKNSAGGTSVGWDSPPASPLQRQPSSPGPQPRNLSEAKHVSLKMAYVSRRCTPTDPEPRYLEICAADGQDAVFLRAKDEASARSWAGAIQAQIGTFIPWVKDELQALLTATGTAGSQDIKQIGWLTEQLPSGGTAPTLALLTEKELLFYCSLPQSREALSRPTRTAPLIATSSAHRLVHSGPSKGSVPYDAELSFALRTGTRHGVDTHLFSVESPQELAAWTRQLVDGCHRAAEGIQEVSTACTWNGRPCSLSVHIDKGFTLWAAEPGAARAMLLRQPFEKLQMSSDDGTSLLFLDFGGAEGEIQLDLHSCPKTMVFIIHSFLSAKVTRLGLLA
As to B3, the binding entry in assay [2] is reported as “binds”.

B4: SNTA1 (human) (protein, UniProt Q13424 1-505)
chain: MASGRRAPRTGLLELRAGAGSGAGGERWQRVLLSLAEDVLTVSPADGDPGPEPGAPREQEPAQLNGAAEPGAGPPQLPEALLLQRRRVTVRKADAGGLGISIKGGRENKMPILISKIFKGLAADQTEALFVGDAILSVNGEDLSSATHDEAVQVLKKTGKEVVLEVKYMKDVSPYFKNSTGGTSVGWDSPPASPLQRQPSSPGPTPRNFSEAKHMSLKMAYVSKRCTPNDPEPRYLEICSADGQDTLFLRAKDEASARSWATAIQAQVNTLTPRVKDELQALLAATSTAGSQDIKQIGWLTEQLPSGGTAPTLALLTEKELLLYLSLPETREALSRPARTAPLIATRLVHSGPSKGSVPYDAELSFALRTGTRHGVDTHLFSVESPQELAAWTRQLVDGCHRAAEGVQEVSTACTWNGRPCSLSVHIDKGFTLWAAEPGAARAVLLRQPFEKLQMSSDDGASLLFLDFGGAEGEIQLDLHSCPKTIVFIIHSFLSAKVTRLGLLA
For the molecule B4, the binding result in assay [3] and in assay [1] was “binds” each time.

B5: NNTM (protein, UniProt Q13423 44-1086)
chain: CKAPVKPGIPYKQLTVGVPKEIFQNEKRVALSPAGVQNLVKQGFNVVVESGAGEASKFSDDHYRVAGAQIQGAKEVLASDLVVKVRAPMVNPTLGVHEADLLKTSGTLISFIYPAQNPELLNKLSQRKTTVLAMDQVPRVTIAQGYDALSSMANIAGYKAVVLAANHFGRFFTGQITAAGKVPPAKILIVGGGVAGLASAGAAKSMGAIVRGFDTRAAALEQFKSLGAEPLEVDLKESGEGQGGYAKEMSKEFIEAEMKLFAQQCKEVDILISTALIPGKKAPVLFNKEMIESMKEGSVVVDLAAEAGGNFETTKPGELYIHKGITHIGYTDLPSRMATQASTLYSNNITKLLKAISPDKDNFYFDVKDDFDFGTMGHVIRGTVVMKDGKVIFPAPTPKNIPQGAPVKQKTVAELEAEKAATITPFRKTMSTASAYTAGLTGILGLGIAAPNLAFSQMVTTFGLAGIVGYHTVWGVTPALHSPLMSVTNAISGLTAVGGLALMGGHLYPSTTSQGLAALAAFISSVNIAGGFLVTQRMLDMFKRPTDPPEYNYLYLLPAGTFVGGYLAALYSGYNIEQIMYLGSGLCCVGALAGLSTQGTARLGNALGMIGVAGGLAATLGVLKPGPELLAQMSGAMALGGTIGLTIAKRIQISDLPQLVAAFHSLVGLAAVLTCIAEYIIEYPHFATDAAANLTKIVAYLGTYIGGVTFSGSLIAYGKLQGLLKSAPLLLPGRHLLNAGLLAASVGGIIPFMVDPSFTTGITCLGSVSALSAVMGVTLTAAIGGADMPVVITVLNSYSGWALCAEGFLLNNNLLTIVGALIGSSGAILSYIMCVAMNRSLANVILGGYGTTSTAGGKPMEISGTHTEINLDNAIDMIREANSIIITPGYGLCAAKAQYPIADLVKMLTEQGKKVRFGIHPVAGRMPGQLNVLLAEAGVPYDIVLEMDEINHDFPDTDLVLVIGANDTVNSAAQEDPNSIIAGMPVLEVWKSKQVIVMKRSLGVGYAAVDNPIFYKPNTAMLLGDAKKTCDALQAKVRESYQK
Turning to B5, the binding entry in assay [1] is on record as “binds”.
